Data source: PubChem BioAssay AID1508597 (Cure First, 2020)
Test: 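Knock-downs altering ovarian cancer cell survival with or without PARP inhibitor rucaparib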 (primary screen). Cell system: human ovarian carcinoma lines grown from tumours: OCI-P5x (papillary serous) and OCI-C5x (clear cell). Reagent: siRNA pool against human genes, 1.25 pmol siRNA per well. Duration: 72 h or 96 h, depending on the cell culture. Conditions: rucaparib 20 µM (about IC30) or vehicle, present until read-out. Rucaparib or vehicle: Rucaparib. Cell line: OCI-P5x (serous). Measurement: 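ATP luminescence measured at 72 or 96 h according to the culture, then normalised and expressed as percent viability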. Direction: viability, normalised: higher = more viable cells remaining. Call rule: 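Active when normalised viability falls below 80 percent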. Meaning of the calls: active = viability under 80%; inactive = viability 80% or more.
Shown is a random part of the about 2,100 reagents, under one of the conditions tested. 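Calls flag viability under 80% in either arm, not effects specific to rucaparib; the reference for percent is not stated.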 Not given: the 100% reference.

With SMC4, technical replicate 1, the entry reads viability, normalised (%) = 56.6; active.
SMC4, technical replicate 2 gave viability, normalised (%) = 62.5; active.
With SMC4, technical replicate 3 the deposit lists viability, normalised (%) = 64.9; active.
With ZDHHC2, technical replicate 1, the values are viability, normalised (%) = 82.8; inactive.
ZDHHC2, technical replicate 2 gave viability, normalised (%) = 67.2; active.
ZDHHC2, technical replicate 3 scored viability, normalised (%) = 83.7; inactive.
GDE1, technical replicate 1 showed viability, normalised (%) = 56.6; active.
GDE1, technical replicate 2 showed viability, normalised (%) = 61.6; active.
For GDE1, technical replicate 3 the deposit lists viability, normalised (%) = 66.1; active.
SUDS3, technical replicate 1 showed viability, normalised (%) = 52.6; active.
SUDS3, technical replicate 2 gave viability, normalised (%) = 46.7; active.
For SUDS3, technical replicate 3, the values are viability, normalised (%) = 49.6; active.
ALDH18A1, technical replicate 1 showed viability, normalised (%) = 94.5; inactive.
For ALDH18A1, technical replicate 2 the deposit lists viability, normalised (%) = 95.1; inactive.
ALDH18A1, technical replicate 3 scored viability, normalised (%) = 83.3; inactive.
NEIL3, technical replicate 1 scored viability, normalised (%) = 72.7; active.
With NEIL3, technical replicate 2 the deposit lists viability, normalised (%) = 62.1; active.
With NEIL3, technical replicate 3, the entry reads viability, normalised (%) = 59.9; active.
GMEB1, technical replicate 1 gave viability, normalised (%) = 55; active.
For GMEB1, technical replicate 2, the entry reads viability, normalised (%) = 32.9; active.
GMEB1, technical replicate 3 gave viability, normalised (%) = 47.5; active.
With GRN, technical replicate 1 the deposit lists viability, normalised (%) = 87.9; inactive.
GRN, technical replicate 2 showed viability, normalised (%) = 88.2; inactive.
For GRN, technical replicate 3, the values are viability, normalised (%) = 83.9; inactive.
With ZSCAN20, technical replicate 1, the entry reads viability, normalised (%) = 56; active.
With ZSCAN20, technical replicate 2 the deposit lists viability, normalised (%) = 56; active.
ZSCAN20, technical replicate 3 gave viability, normalised (%) = 46.6; active.
With POLD1, technical replicate 1, the values are viability, normalised (%) = 59.3; active.
POLD1, technical replicate 2 gave viability, normalised (%) = 78.3; active.
POLD1, technical replicate 3 showed viability, normalised (%) = 74.4; active.
For PRKAG1, technical replicate 1, the entry reads viability, normalised (%) = 123; inactive.
PRKAG1, technical replicate 2 scored viability, normalised (%) = 118; inactive.
PRKAG1, technical replicate 3 scored viability, normalised (%) = 109; inactive.
